Source: the supplement of paper PMC6411743
± gives the standard deviation of the averaged measurements. The entries are a selection whose mix differs from that of the whole data set. Most entries show no effect beyond the scatter of the controls.

Chains of the proteins cited; added tags and fusions are not shown. Lines headed by an entry give the natural chain unless they say otherwise; changes in a name come on top.
UniProt O94905: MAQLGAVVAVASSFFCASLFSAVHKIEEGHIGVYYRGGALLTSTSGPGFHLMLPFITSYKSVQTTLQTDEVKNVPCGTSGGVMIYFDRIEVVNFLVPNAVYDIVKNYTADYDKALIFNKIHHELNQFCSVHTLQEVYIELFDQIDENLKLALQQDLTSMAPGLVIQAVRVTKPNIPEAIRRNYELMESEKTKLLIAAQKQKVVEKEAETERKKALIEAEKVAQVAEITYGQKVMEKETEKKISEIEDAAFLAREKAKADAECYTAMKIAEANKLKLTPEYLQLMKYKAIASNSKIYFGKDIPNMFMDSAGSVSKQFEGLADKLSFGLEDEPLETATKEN
UniProt Q9GZZ1: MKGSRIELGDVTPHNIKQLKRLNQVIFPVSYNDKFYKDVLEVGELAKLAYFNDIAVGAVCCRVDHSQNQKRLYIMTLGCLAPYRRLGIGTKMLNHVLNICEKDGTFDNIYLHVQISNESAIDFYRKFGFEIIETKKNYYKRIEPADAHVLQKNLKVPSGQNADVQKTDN
UniProt P30203: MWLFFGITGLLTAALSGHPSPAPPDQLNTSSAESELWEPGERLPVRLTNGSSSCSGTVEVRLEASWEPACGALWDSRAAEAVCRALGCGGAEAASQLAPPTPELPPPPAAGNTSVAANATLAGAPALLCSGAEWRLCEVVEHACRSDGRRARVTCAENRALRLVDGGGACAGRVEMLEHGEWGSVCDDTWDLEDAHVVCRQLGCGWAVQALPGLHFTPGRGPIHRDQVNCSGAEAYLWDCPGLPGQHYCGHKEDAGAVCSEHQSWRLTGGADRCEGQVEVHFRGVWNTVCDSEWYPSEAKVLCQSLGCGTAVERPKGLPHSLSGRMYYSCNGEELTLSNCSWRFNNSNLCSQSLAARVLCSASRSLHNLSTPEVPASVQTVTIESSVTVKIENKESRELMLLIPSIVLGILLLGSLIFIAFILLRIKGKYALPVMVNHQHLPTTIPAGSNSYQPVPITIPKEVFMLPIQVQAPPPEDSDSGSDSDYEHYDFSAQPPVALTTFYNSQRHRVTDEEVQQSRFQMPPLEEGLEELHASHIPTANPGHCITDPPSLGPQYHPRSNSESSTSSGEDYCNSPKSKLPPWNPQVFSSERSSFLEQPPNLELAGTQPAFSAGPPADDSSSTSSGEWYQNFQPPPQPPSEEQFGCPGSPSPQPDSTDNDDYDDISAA
UniProt Q8N4H5: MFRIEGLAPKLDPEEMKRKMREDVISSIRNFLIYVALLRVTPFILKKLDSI
UniProt Q9Y3C0: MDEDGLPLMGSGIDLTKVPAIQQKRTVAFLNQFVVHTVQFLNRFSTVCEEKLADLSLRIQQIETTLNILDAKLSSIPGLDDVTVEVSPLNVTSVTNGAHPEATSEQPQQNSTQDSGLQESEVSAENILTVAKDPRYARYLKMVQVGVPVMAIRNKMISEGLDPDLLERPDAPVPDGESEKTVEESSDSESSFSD
UniProt P52747: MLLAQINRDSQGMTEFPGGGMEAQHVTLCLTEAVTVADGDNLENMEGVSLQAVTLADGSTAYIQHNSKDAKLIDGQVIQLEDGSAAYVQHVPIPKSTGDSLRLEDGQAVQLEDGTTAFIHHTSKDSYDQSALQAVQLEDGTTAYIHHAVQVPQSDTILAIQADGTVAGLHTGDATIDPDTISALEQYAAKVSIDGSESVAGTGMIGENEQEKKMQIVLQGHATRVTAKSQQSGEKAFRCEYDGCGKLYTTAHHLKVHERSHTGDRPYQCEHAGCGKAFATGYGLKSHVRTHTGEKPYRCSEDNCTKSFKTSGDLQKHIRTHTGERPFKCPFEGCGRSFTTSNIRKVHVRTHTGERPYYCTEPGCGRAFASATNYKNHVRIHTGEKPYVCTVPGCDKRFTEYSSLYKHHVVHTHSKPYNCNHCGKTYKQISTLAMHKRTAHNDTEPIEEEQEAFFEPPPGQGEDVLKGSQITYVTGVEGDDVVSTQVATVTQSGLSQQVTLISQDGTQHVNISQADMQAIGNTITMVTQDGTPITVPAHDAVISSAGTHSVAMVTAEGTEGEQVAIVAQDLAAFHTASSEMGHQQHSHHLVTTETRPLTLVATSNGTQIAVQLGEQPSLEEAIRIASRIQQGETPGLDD
UniProt O43491, whole entry: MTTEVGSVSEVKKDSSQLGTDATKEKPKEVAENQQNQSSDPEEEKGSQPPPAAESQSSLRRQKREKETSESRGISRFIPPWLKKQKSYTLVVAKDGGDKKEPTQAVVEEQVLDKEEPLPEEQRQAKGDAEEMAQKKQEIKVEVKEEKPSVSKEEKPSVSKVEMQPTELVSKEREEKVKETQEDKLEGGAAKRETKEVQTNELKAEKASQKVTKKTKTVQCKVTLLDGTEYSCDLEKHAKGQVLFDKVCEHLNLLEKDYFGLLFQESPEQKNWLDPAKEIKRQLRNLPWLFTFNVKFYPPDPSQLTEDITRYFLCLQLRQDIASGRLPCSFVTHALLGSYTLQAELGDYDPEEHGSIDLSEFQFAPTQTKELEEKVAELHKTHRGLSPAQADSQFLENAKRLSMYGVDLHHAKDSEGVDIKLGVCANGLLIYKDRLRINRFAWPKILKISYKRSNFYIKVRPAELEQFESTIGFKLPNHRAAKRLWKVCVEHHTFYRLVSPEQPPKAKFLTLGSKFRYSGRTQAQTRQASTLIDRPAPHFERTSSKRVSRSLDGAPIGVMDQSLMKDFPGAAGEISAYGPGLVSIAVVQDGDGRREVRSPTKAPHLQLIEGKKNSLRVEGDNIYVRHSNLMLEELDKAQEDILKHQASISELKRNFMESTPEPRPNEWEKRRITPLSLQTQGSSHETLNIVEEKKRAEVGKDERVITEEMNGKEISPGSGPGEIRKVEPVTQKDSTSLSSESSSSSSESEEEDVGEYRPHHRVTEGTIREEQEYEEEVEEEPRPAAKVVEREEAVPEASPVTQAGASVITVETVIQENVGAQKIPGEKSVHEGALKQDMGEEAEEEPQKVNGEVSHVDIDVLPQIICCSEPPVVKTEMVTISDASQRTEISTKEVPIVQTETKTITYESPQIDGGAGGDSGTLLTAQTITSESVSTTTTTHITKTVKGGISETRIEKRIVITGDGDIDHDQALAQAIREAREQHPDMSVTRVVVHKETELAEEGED
UniProt Q9UI43: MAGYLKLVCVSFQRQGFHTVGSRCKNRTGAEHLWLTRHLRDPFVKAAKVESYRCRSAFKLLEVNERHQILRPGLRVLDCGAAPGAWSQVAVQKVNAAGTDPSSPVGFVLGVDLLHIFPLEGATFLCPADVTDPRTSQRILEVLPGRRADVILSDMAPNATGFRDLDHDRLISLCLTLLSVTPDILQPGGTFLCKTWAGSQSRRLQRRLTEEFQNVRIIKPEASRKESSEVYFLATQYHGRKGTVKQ
UniProt P57071, whole entry: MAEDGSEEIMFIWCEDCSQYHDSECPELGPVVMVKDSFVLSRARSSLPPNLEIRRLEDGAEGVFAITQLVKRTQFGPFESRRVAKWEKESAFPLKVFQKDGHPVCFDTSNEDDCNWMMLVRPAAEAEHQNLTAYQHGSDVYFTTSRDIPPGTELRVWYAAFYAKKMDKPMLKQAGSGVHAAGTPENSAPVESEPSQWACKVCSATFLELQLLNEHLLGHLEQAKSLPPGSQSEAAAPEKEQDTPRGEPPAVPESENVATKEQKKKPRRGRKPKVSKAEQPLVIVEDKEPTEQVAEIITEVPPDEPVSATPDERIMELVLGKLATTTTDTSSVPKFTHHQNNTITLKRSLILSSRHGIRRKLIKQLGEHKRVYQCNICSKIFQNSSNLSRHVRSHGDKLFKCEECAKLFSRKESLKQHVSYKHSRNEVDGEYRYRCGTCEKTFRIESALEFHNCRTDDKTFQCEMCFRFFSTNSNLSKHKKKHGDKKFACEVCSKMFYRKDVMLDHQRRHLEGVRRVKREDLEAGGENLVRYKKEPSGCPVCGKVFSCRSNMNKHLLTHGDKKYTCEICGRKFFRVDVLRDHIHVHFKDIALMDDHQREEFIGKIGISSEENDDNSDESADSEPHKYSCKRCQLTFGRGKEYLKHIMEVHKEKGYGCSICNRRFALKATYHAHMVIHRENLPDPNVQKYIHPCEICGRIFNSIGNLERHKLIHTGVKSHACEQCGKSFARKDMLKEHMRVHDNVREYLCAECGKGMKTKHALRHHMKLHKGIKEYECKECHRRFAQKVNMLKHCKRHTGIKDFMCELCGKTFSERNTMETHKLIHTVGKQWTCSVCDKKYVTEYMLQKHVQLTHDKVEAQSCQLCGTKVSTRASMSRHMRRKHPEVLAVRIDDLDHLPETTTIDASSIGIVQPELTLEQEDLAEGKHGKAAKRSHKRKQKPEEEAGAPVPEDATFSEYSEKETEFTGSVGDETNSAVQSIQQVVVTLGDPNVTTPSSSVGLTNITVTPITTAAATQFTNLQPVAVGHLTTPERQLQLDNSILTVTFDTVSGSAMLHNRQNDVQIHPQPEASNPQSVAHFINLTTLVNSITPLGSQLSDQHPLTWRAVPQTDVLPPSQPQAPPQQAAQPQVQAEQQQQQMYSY
UniProt O00244: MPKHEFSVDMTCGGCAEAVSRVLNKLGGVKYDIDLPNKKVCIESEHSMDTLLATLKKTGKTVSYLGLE
UniProt E9PAV3, whole entry, looked up: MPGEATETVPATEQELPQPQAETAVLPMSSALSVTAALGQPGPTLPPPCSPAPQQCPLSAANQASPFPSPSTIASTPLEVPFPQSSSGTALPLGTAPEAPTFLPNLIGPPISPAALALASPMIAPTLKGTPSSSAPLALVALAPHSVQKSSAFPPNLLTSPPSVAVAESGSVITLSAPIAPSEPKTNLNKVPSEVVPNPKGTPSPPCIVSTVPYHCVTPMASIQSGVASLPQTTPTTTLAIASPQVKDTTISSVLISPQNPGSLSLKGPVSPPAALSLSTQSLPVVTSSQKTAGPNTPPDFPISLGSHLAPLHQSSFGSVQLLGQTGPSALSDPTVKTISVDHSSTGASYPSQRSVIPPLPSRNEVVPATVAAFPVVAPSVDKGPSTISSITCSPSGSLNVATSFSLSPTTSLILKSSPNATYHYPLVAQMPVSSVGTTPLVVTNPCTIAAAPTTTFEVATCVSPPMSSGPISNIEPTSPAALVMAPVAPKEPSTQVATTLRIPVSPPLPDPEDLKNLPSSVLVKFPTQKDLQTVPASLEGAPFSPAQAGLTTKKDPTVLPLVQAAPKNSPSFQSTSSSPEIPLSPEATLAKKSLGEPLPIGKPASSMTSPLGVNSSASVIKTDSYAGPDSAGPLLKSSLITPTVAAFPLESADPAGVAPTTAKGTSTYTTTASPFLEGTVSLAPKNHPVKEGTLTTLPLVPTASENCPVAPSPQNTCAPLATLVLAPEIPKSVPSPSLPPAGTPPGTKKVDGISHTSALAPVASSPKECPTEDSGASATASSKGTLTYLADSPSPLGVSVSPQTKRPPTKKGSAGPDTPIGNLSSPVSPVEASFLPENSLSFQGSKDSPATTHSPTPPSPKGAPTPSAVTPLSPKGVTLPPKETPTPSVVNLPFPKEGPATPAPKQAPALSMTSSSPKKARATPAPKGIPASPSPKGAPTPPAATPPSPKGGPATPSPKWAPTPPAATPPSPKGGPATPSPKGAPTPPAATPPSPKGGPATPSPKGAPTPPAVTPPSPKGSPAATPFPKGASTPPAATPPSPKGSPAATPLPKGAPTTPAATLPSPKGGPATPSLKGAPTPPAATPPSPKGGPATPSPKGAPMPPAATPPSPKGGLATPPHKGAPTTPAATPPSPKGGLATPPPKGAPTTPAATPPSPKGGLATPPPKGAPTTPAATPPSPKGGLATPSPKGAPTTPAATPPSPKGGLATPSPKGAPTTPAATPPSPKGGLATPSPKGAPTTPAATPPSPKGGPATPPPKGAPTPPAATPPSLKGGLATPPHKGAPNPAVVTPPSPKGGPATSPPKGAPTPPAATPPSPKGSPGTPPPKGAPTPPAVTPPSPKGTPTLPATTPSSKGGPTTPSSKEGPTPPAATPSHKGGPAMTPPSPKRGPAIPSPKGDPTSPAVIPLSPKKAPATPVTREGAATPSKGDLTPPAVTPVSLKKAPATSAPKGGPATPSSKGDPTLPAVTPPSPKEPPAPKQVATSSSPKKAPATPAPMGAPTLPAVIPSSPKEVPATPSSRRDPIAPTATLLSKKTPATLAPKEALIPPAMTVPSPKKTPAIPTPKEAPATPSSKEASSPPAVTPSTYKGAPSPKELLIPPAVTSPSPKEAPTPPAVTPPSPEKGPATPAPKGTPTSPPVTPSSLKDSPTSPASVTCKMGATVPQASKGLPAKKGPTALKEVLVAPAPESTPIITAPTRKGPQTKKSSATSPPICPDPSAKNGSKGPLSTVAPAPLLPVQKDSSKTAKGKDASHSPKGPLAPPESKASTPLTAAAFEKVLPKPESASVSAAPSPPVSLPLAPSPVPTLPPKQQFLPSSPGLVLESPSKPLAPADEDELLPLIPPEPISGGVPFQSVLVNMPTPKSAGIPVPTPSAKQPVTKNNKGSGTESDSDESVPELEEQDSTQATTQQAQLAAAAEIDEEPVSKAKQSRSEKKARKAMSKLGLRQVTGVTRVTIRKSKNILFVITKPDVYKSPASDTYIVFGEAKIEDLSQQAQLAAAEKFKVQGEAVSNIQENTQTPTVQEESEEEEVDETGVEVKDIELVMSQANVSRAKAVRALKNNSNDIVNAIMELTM

Compound: Nc1ncnc2c1ncn2[C@@H]1O[C@H](COP(=O)(O)OP(=O)(O)OP(=O)(O)O)[C@@H](O)[C@H]1O [adenosine triphosphate]
Experiment: NP40-soluble protein abundance relative to vehicle (solubility fold change) (ratio); higher = more soluble protein in presence of ATP
How it was run: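 In three independent experiments, Jurkat crude lysate made by Dounce homogenisation was treated for 10 min at room temperature and then 3 min at 37 °C with eight concentrations ranging from 0.1 to 10 mM. It was then solubilised with 0.8% NP40 plus benzonase for 60 min at 4 °C and ultracentrifuged. The supernatant was TMT-labelled for LC-MS/MS, and each value is the fold change against the detergent-processed vehicle for the same replicate, using vsn-normalised intensities.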

Target	NP40-soluble protein abundance (concentration: 0.1mM)	NP40-soluble protein abundance (concentration: 0.5mM)
F8WF69 and related entries (UniProt P09496)	0.924 ± 0.04	0.945 ± 0.05
F5H070 and related entries (UniProt Q9Y4C1)	0.995 ± 0.013	0.995 ± 0.025
E9PF32 and related entries (UniProt A2RUS2)	0.996 ± 0.072	0.986 ± 0.015
E7EX17 and related entries (UniProt P23588)	0.986 ± 0.02	0.987 ± 0.039
E5RJF8 and related entries (UniProt O15182)	0.901 ± 0.058	0.946 ± 0.11
E9PM19 and related entries (UniProt P29597)	1.2 ± 0.18	1.25 ± 0.057
E9PLV1 and related entries (UniProt Q9NQV6)	1.01 ± 0.019	0.984 ± 0.07
G3V553 and related entries (UniProt Q9NWQ4)	0.899 ± 0.047	1.05 ± 0.19
E7EQ34 and related entries (UniProt O14653+I3L4Z6+E7EQ34)	0.992 ± 0.074	1.04 ± 0.073
E9PLY5 and related entries (UniProt Q9UPN3+H3BQK9+H3BPE1+E9PLY5)	1.012 ± 0.0078	1.03 ± 0.047
F8WB06 and related entries (UniProt Q99700)	0.959 ± 0.024	0.993 ± 0.067
F8VU39 and related entries (UniProt Q9UIF9)	1.03 ± 0.095	1.1 ± 0.16
E7EMS2 and related entries (UniProt P61916)	0.939 ± 0.049	0.943 ± 0.046
F5GX51 and related entries (UniProt Q9Y4F9)	1.02 ± 0.019	1.04 ± 0.04
E9PFW2 and related entries (UniProt O00462)	1.07 ± 0.083	1.03 ± 0.043
E5RHW4 and related entries (UniProt O94905)	0.968 ± 0.085	1.02 ± 0.14
G3XAN4 and related entries (UniProt Q15629)	0.946 ± 0.035	1.01 ± 0.07
G3V3M6 and related entries (UniProt P27695)	0.971 ± 0.052	1.01 ± 0.06
E9PMR4 and related entries (UniProt P48509)	0.985 ± 0.073	0.879 ± 0.03
G5E977 and related entries (UniProt Q6XQN6)	1.04 ± 0.044	0.946 ± 0.033
F6S8M0 and related entries (UniProt P15586)	0.909 ± 0.054	0.904 ± 0.083
E7EU96 and related entries (UniProt P68400)	1.05 ± 0.066	1.03 ± 0.077
F8W6N3 and related entries (UniProt Q92560)	0.963 ± 0.043	1.03 ± 0.074
E9PN30 and related entries (UniProt Q9BQE4)	0.943 ± 0.13	0.939 ± 0.16

Single records, from the list above. Values in the order: NP40-soluble protein abundance (concentration: 0.1mM)	NP40-soluble protein abundance (concentration: 0.5mM)
E7EMS2 and related entries (UniProt P61916) reads 0.939 ± 0.049	0.943 ± 0.046
F8WB06 and related entries (UniProt Q99700) reads 0.959 ± 0.024	0.993 ± 0.067
F5H070 and related entries (UniProt Q9Y4C1) reads 0.995 ± 0.013	0.995 ± 0.025
E9PFW2 and related entries (UniProt O00462) reads 1.07 ± 0.083	1.03 ± 0.043

(cont.)

Target	NP40-soluble protein abundance (concentration: 0.1mM)	NP40-soluble protein abundance (concentration: 0.5mM)
F2Z3D9 and related entries (UniProt O43709)	1 ± 0.035	1.07 ± 0.086
F2Z2X0 and related entries (UniProt O00746)	1.09 ± 0.04	1.04 ± 0.024
F8VSL3 and related entries (UniProt P25208)	1.03 ± 0.056	0.962 ± 0.06
F6UZG9 and related entries (UniProt Q8NFZ0)	1.06 ± 0.21	0.961 ± 0.05
G5E994 and related entries (UniProt Q5VW38)	1.07 ± 0.081	0.975 ± 0.015
F5GXJ1 and related entries (UniProt O75251)	0.941 ± 0.063	0.938 ± 0.12
E7EPT4 and related entries (UniProt P19404)	0.897 ± 0.14	0.869 ± 0.13
E7EQT4 and related entries (UniProt Q9UKV3)	0.974 ± 0.044	1.01 ± 0.063
G3V5X4 and related entries (UniProt Q8WXH0)	0.9989 ± 0.005	1.01 ± 0.038
E7EQ69 and related entries (UniProt Q9GZZ1)	0.9163 ± 0.00094	0.947 ± 0.073
G3V3H3 and related entries (UniProt Q07866)	0.962 ± 0.051	1 ± 0.071
E9PMR6 and related entries (UniProt Q9NZN5)	1.04 ± 0.014	1.01 ± 0.081
F6SFZ6 and related entries (UniProt Q99571)	0.925 ± 0.076	0.975 ± 0.14
G5E973 and related entries (UniProt P30203)	1.01 ± 0.019	0.995 ± 0.036
F8W8Z9 and related entries (UniProt Q8N4H5)	0.822 ± 0.16	0.845 ± 0.25
G5E9A6 (UniProt P51784)	1.08 ± 0.087	1.07 ± 0.083
E7EPJ9 and related entries (UniProt P05120)	0.927 ± 0.025	0.852 ± 0.014
F5H658 and related entries (UniProt Q14562)	1.05 ± 0.039	1.29 ± 0.079
G3XA86 and related entries (UniProt Q9Y2Z9)	1.08 ± 0.061	1.02 ± 0.024
F5GZ97 and related entries (UniProt Q9Y3C0)	0.849 ± 0.14	0.837 ± 0.18
E5RJR5 and related entries (UniProt P63208)	0.933 ± 0.088	0.916 ± 0.093
F8VYC4 and related entries (UniProt P0DJD1+P0DJD0+F8VYC4)	1.01 ± 0.09	1.01 ± 0.027
F5H8D7 and related entries (UniProt P18887)	1.02 ± 0.041	1.07 ± 0.057
E7EN86 and related entries (UniProt P52747)	1 ± 0.091	1.01 ± 0.045

Target	NP40-soluble protein abundance (concentration: 0.1mM)	NP40-soluble protein abundance (concentration: 0.5mM)
F8WA39 and related entries (UniProt Q13613)	1.06 ± 0.022	1.04 ± 0.046
E9PJD7 (UniProt P0DTL6)	1.07 ± 0.066	1.06 ± 0.1
E9PQ56 and related entries (UniProt Q9UHX1)	1.12 ± 0.026	1.31 ± 0.064
F5GYX3 and related entries (UniProt O75326)	0.913 ± 0.089	0.965 ± 0.031
E9PIK4 and related entries (UniProt O14683)	1.08 ± 0.22	0.975 ± 0.17
E9PDQ8 and related entries (UniProt Q96I99)	1.02 ± 0.041	1.02 ± 0.048
F6VUX8 and related entries (UniProt Q9HC77)	0.944 ± 0.039	0.949 ± 0.03
F8W7Q4 and related entries (UniProt Q96A26)	0.868 ± 0.16	0.897 ± 0.27
F5H5D3 and related entries (UniProt Q9BQE3)	0.989 ± 0.093	0.964 ± 0.17
E9PKQ5 and related entries (UniProt Q9GZT6)	0.972 ± 0.035	0.9768 ± 0.0061
G3V529 and related entries (UniProt Q9GZR7)	0.994 ± 0.013	1.03 ± 0.012
F8W950 and related entries (UniProt Q13155)	0.968 ± 0.054	0.983 ± 0.052
E9PHY5 and related entries (UniProt O43491)	0.996 ± 0.033	0.992 ± 0.039
F5H8H2 and related entries (UniProt Q03426)	1.03 ± 0.068	1.05 ± 0.09
F8W7U8 and related entries (UniProt P49959)	1.03 ± 0.038	1.08 ± 0.059
E9PGN6 and related entries (UniProt Q9UI43+E9PGN6)	0.986 ± 0.094	1.02 ± 0.083
E9PEJ6 and related entries (UniProt P98196)	1.06 ± 0.071	0.961 ± 0.03
G3V5T9 and related entries (UniProt P24941)	1.01 ± 0.077	1.03 ± 0.052
E7ER26 and related entries (UniProt P57071)	1.04 ± 0.028	0.973 ± 0.12
E7EQR8 and related entries (UniProt Q9GZM5)	1.05 ± 0.029	1.07 ± 0.053
G0XQ39 and related entries (UniProt Q13586)	1 ± 0.032	1.04 ± 0.047
E9PC90 and related entries (UniProt P14635)	0.981 ± 0.14	0.957 ± 0.04
E5RIM7 and related entries (UniProt O00244)	0.853 ± 0.12	0.864 ± 0.2
E9PJK5 and related entries (UniProt Q8N612)	1.21 ± 0.23	0.958 ± 0.055

Target	NP40-soluble protein abundance (concentration: 0.1mM)	NP40-soluble protein abundance (concentration: 0.5mM)
E5RFU2 and related entries (UniProt P34913)	0.997 ± 0.014	0.996 ± 0.015
E9PJ55 (UniProt Q9NUJ3)	1.05 ± 0.083	1.02 ± 0.068
E7EVA0 and related entries (UniProt P27816)	0.963 ± 0.021	0.974 ± 0.044
E7EWW9 and related entries (UniProt P09488)	0.897 ± 0.072	0.932 ± 0.11
F8W1A4 and related entries (UniProt P54819)	0.948 ± 0.061	0.956 ± 0.031
E9PMC9 and related entries (UniProt Q7Z589)	0.936 ± 0.12	0.968 ± 0.032
E9PFB9 and related entries (UniProt Q5T9S5)	0.928 ± 0.051	0.945 ± 0.028
E9PNW4 and related entries (UniProt P13987)	0.904 ± 0.097	0.88 ± 0.14
F8W8W7 and related entries (UniProt O43493)	0.885 ± 0.23	0.88 ± 0.29
F5GXE4 and related entries (UniProt O95260)	1.03 ± 0.1	1.02 ± 0.069
E7EN19 and related entries (UniProt O95819)	1.03 ± 0.019	1.02 ± 0.034
E9PHV5 and related entries (UniProt P28290)	1.03 ± 0.099	1.08 ± 0.13
E7EQR4 and related entries (UniProt P15311)	1.03 ± 0.06	1.03 ± 0.075
E5RJD8 and related entries (UniProt O75347)	0.907 ± 0.055	0.951 ± 0.063
E9PJ04 and related entries (UniProt Q13435)	0.999 ± 0.056	1.06 ± 0.084
E9PAV3-2|E9PAV3 and related entries (UniProt Q13765+H0YHX9+F8VZJ2+E9PAV3)	0.952 ± 0.083	1.01 ± 0.073
E9PGT3 and related entries (UniProt Q15418)	1.05 ± 0.1	1.07 ± 0.098
F5H269 and related entries (UniProt Q9Y485)	1.03 ± 0.018	0.991 ± 0.043
E7ETZ4 and related entries (UniProt Q9Y6E2)	0.98 ± 0.018	1.003 ± 0.0092
E7EX90 and related entries (UniProt Q14203)	0.957 ± 0.032	0.986 ± 0.062
E9PGC8 (UniProt P78559)	0.981 ± 0.02	0.985 ± 0.049
F6SS63 and related entries (UniProt Q8N5C8)	1.01 ± 0.12	0.94 ± 0.19
